These are yes or no findings as the source states them, for the method shown. Binding seen in cells or lysates may run through a third protein. A result given as binding can be weak or reduced; the word gives no strength. Tags and fused reporters may be left off the sequences shown.
Target: T1, MKK5 fused to a half of Renilla luciferase (UniProt Q8RXG3)
T1 sequence: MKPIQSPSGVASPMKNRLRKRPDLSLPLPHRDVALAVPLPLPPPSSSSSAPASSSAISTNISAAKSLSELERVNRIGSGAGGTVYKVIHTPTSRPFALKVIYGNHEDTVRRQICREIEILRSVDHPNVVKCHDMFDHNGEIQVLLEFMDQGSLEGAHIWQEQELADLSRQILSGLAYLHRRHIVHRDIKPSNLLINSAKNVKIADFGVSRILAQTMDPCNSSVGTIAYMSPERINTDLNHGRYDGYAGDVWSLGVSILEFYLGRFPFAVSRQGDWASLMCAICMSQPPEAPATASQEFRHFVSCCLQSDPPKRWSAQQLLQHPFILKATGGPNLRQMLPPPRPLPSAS
Assay: split reporter; split Renilla luciferase complementation in Arabidopsis protoplasts co-transformed with NLuc and CLuc fusions; luminescence read 12-16 h after transformation; with or without 100 or 200 uM SA (3 h)

HopF2 fused to a half of Renilla luciferase
binding: binds
